# Experimental data reported in PMC4738272 (Scientific Reports, 2016).
# Key:
# HepG2/C3A [1] = assay: Urea quantification, liver fraction of 4-organ system; format: cell-based, human; conditions: 4-organ co-culture under flow, 48 h drug treatment, vs control; DOX 5 μM, ATR 100 μM, APAP 5 mM, AMAP 5 mM
# [2] = cited from earlier work
# HepG2/C3A [3] = assay: MTT viability of liver module in 4-organ system; format: cell-based, human; conditions: 4-organ co-culture under flow, serum-free medium, 48 h drug treatment, day 7, vs control, DOX 5 μM, ATR 100 μM, VPA 2 mM, APAP 5 mM, AMAP 5 mM
compound,measurement,setting,value
CC(C)c1c(C(=O)Nc2ccccc2)c(-c2ccccc2)c(-c2ccc(F)cc2)n1CC[C@@H](O)C[C@@H](O)CC(=O)O [Atorvastatin],"Urea production, increase",HepG2/C3A [1],24 ± 4%
same,Range for human plasma levels,[2],13 to 125 µM
same,"Liver (hepatocyte) cell viability, loss",HepG2/C3A [3],50 ± 16% loss
same,"Liver (hepatocyte) cell viability, loss",HepG2/C3A [3]; listed as ATR,50 ± 16%
